Measured values: patent publication US12275685B2, “Oligo-benzamide analogs and their use in cancer treatment” (Board of Regents, The University of Texas System, priority 2018, dated 2025)

Assays:
SKOV3 cells = assay: RNA-seq after ERX-208; assay type: cell-based
MCF-7 MT-ERα Y537S cells = assay: RNA-sequencing and GO analyses after TX-542; assay type: cell-based; conditions: 200 nM, 24 h

Row | SMILES | number of down regulated genes (SKOV3 cells) [genes] | number of upregulated genes (SKOV3 cells) [genes] | number of genes down regulated (MCF-7 MT-ERα Y537S cells; log 2FC<−0.5, p<0.01) [genes] | number of genes upregulated (MCF-7 MT-ERα Y537S cells; log 2FC>0.5) [genes]
1 | CC(C)COc1cc(C(=O)Nc2ccc(C(=O)N[C@H]3CC[C@H](C(=O)Nc4cnc5ccccc5c4)CC3)cc2OCC(C)C)ccc1NC(=O)c1ccc([N+](=O)[O-])c(OCCO)c1 [TK208] | 1018 | 1183 |  | 
2 | NCCC(=O)Nc1ccc(C(=O)Nc2ccc(C(=O)NCCc3ccc4ccccc4c3)cc2OCC2CCCCC2)cc1OCCO [TX-542] |  |  | 1029 | 1189
